Measured values reported in publication PMC12622967.
No constants are given. Whether binding was seen depends on the method and setting. Binding seen in cells or lysates may run through a third protein. These calls come from enrichment with a bait or labelling near it, and not all partners need be listed.

Amino acid sequences for entries named in this document (tags omitted).
UniProt P52480: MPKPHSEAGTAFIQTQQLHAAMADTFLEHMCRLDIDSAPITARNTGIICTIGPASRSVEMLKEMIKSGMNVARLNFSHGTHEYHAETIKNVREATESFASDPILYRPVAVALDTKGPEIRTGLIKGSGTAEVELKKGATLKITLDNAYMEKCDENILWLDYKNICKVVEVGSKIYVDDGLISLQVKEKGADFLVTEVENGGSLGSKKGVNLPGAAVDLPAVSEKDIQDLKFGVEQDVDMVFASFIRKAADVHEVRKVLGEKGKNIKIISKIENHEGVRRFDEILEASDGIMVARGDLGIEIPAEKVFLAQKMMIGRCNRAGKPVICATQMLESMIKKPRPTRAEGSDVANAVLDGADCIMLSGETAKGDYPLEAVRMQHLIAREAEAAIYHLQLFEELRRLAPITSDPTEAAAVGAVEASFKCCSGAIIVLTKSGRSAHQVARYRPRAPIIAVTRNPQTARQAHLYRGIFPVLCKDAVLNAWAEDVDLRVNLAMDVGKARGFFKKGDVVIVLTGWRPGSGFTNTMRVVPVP

Biological target: T1, SNO-CoA Reductase 2 (SCoR2; product of the Akr1a1 gene) (mouse (endogenous in mouse heart)) (UniProt Q9JII6)
T1 sequence: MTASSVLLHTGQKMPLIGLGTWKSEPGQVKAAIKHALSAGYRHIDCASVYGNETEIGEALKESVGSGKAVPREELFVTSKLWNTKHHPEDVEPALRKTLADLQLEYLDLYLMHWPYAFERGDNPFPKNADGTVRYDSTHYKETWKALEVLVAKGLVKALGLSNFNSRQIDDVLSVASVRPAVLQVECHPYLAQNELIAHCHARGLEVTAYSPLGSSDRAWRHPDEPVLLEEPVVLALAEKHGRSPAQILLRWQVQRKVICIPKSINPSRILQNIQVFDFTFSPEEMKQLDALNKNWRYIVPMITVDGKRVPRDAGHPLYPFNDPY
Experiment: affinity purification with mass spectrometry; co-immunoprecipitation with 10 µg anti-SCoR2/AKR1A1 antibody (15054-1-AP, Proteintech) from untreated wild-type mouse heart lysate in non-denaturing lysis buffer (20 mM Tris-HCl pH 8.0, 137 mM NaCl, 1% NP-40, 2 mM EDTA), 2 hr at room temperature, protein A/G magnetic beads, elution with 0.1 M glycine pH 2.0, LC-MS/MS

Molecule: pyruvate kinase M2 (PKM2) (from UniProt P52480 1-531) (enzyme)
- binding: binds

B1: β-hydroxybutyrate dehydrogenase (BDH1) (enzyme, UniProt Q80XN0 47-343)
chain: ASQADAASGKAILITGCDSGFGFSLAKHLHSKGFLVFAGCLMKDKGDAGVKELDSLKSDRLRTIQLNVCNSEEVEKAVETIRSGLKDPEKGMWGLVNNAGISTFGEVEFTSMETYKEVAEVNLWGTVRTTKSFLPLLRRAKGRVVNISSMLGRMANPARSPYCITKFGIEAFSDCLRYEMHPLGVKVSVVEPGNFIAATSLYSPERIQAIAKKMWDDLPEVVRKDYGRKYFDEKIAKMETYCNSGSTDTSSVINAVTHALTAATPYTRYHPMDYYWWLRMQIMTHFPGAISDKIYIH
- binding: binds
